Key:
[1] = Microsomal stability assay, human liver microsomes; assay type: in vitro ADME; settings: Figure 5C
Protocol: (§1) A total of 445 μL of the working solution was transferred into prewarmed incubation plates for treated (T60) and control (NCF60) measurements. After preincubation (10 minutes at 37°C with constant shaking), 54 μL was transferred to the blank plate, followed by 6 μL of NADPH and 180 μL quenching solution. In parallel, 5 μL of WCDD301 (100 μM) was added into incubation plates (T60 and NCF60) containing microsomes and mixed thoroughly (3 times). For the NCF60 plate, 50 μL of buffer was added, mixed (thoroughly, 3 times), shaken, and incubated at 37°C for 60 minutes. In the quenching plate T0, quenching solution (180 μL) and NADPH cofactor (6 μL) were added. For T60 plate, 54 μL of the mixture was placed into the quenching plate (for T0 point), followed by adding 44 μL NADPH cofactor with shaking incubation at 37°C for 60 minutes. Quenching solution (180 μL) was added to quenching plates at 5, 15, 30, 45, and 60 minutes, and 60 μL of sample was transferred from T60 plate per time point to the quenching plates. For the NCF60 plates, 60 μL sample from the NCF60 incubation plate was transferred to the quenching plate (containing quenching solution) at the 60-minute time point. After plates were shaken for 10 minutes and centrifuged (1,750g, 20 minutes at 4°C), 80 μL of the supernatant was transferred into 240 μL HPLC water for LC-MS/MS analysis. The following first-order kinetic equation was used to calculate half-life (T1/2): [drawing 3]; when
(§2) Then, intrinsic clearance [CLint (microsomal; mic)] and hepatic clearance [CLint (liver)] were predicted using the following equations ([66]): […]

[2] = Microsomal stability assay, CD-1 mouse liver microsomes; assay type: in vitro ADME; settings: Figure 5D
Protocol: as §1, §2

SMILES: CCCNCC(O)COc1ccccc1C(=O)CCc1ccccc1 (stereo not shown) [Propafenone]
- Remaining in hepatic microsomes (100 at 0 min) ([1]; 5 min): 84.9
- Remaining in hepatic microsomes (100 at 0 min) ([1]; 15 min): 45.8
- Remaining in hepatic microsomes (100 at 0 min) ([1]; 30 min): 7.4
- Remaining in hepatic microsomes (100 at 0 min) ([1]; 45 min): 0.2
- Remaining in hepatic microsomes (100 at 0 min) ([2]; 5 min): 34.8
- Remaining in hepatic microsomes (100 at 0 min) ([2]; 15 min): 1.1
- Remaining in hepatic microsomes (100 at 0 min) ([2]; 30 min): 0.1
